Reference: patent publication US20090137678A1, “HIGH YIELD SYNTHESIS METHODS FOR PRODUCING ORGANIC SALTS OF STRONTIUM” (priority 2005, published 2009)
Some entries share one result that the patent states for a list of compounds. At least one structure is not confirmed: it was looked up by name or label, or the drawing left a doubt.

Test: Decomposition of strontium salts of temperature-sensitive anions upon heating
Assay type: physicochemical
Conditions: forms strontium oxalate (ascorbate) or strontium salicylate (acetylsalicylate)

SMILES: O.O.O=C1O[C@H]([C@@H](O)CO)C([O-])=C1O.O=C1O[C@H]([C@@H](O)CO)C([O-])=C1O.[Sr+2] [strontium di L-ascorbate dihydrate]
- temperature above which the salt decomposes upon heating: 40-50 °C
